Measurements: PubChem BioAssay (EPA / NIEHS)
The shares of active, inactive and inconclusive entries below differ from those in the screen. Where the call is inconclusive, the potency comes from a doubtful curve fit. Calls of active or inactive are those of the source. Rule for the calls: active = hit-call score of the fitted dose curve at least 0.9, where 1 is the maximum; inconclusive = response in the unintended direction; inactive = score below 0.9.

By UniProt entry, the sequences of proteins in these tests, tags left out. Where a name states a change or a piece, a line headed by the entry shows the natural chain unless it says otherwise.
UniProt Q15822: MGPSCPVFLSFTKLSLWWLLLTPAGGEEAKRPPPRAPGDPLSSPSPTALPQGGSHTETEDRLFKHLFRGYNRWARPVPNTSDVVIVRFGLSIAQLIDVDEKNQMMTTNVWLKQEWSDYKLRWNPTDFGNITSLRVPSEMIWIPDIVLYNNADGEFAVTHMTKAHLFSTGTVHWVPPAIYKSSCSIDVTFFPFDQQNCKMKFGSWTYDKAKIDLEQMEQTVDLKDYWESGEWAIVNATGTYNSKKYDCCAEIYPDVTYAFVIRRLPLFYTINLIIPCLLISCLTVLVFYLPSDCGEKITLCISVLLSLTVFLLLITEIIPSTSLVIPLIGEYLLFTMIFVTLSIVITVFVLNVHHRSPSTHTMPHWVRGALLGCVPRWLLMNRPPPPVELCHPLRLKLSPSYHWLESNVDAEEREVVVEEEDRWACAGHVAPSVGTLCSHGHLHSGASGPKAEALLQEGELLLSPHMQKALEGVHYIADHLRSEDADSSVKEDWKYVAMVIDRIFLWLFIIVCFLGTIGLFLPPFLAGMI

What follows are molecules tested against human Neonicotinoid receptor (NNR), CHRNA2 (gene 1135) (UniProt Q15822) (assay: NVS_LGIC_hNNR_NBungSens: NovaScreen (NVS) Ligand-Gated Ion Channel Assay for human Neonicotinoid receptor (NNR) (AID 2283313)).
Experimental: NVS_LGIC_hNNR_NBungSens is a biochemical, single-readout assay that uses extracted gene-proteins from Human neuroblastoma membrane cells in a tissue-based cell-free assay. Measurements were taken 2 hours after chemical dosing in a 48-well plate.NVS_LGIC_hNNR_NBungSens is one of one assay component(s) measured or calculated from the NVS_LGIC_hNNR_NBungSens assay. It is designed to make measurements of radioligand binding, a form of binding reporter, as detected with scintillation counting signals by Filter-based radiodetection technology.Data from the assay component NVS_LGIC_hNNR_NBungSens was analyzed into 1 assay endpoint. This assay endpoint, NVS_LGIC_hNNR_NBungSens, was analyzed in the positive analysis fitting direction relative to DMSO as the negative control and baseline of activity. Using a type of binding reporter, loss-of-signal activity can be used to understand changes in the binding as they relate to the gene CHRNA2. Furthermore, this assay endpoint can be referred to as a primary readout, because the performed assay has only produced 1 assay endpoint. To generalize the intended target to other relatable targets, this assay endpoint is annotated to the ion channel intended target family, where the subfamily is ligand-gated ion channel.
Binding assays used specific radioligands (tritiated, iodinated) with non-radioactive competitive displacement ligands in agonist or antagonist protocols (as indicated) and various reference compounds and inhibitors to titrate specific binding to receptors and transporters. Most enzyme assays (CYPs, kinases, phosphatases, proteases, HDACs) used recombinant protein and specific substrates (fluorescence mostly, some colorimetric and radioactive) and inhibitors, followed by a biochemical separation of substrate and product. All assays for the biochemical HTS were initially run in duplicate at a single concentration (10 uM for CYP450 assays and 25 uM for all others). Assay-chemical combinations meeting a pre-defined threshold (e.g., 30% inhibition and other criteria defined below) were then run in singleton concentration-response format with maximum concentration of 20 uM for CYPs and 50 uM for all others. Each assay was run with positive and negative controls, and concurrent controls on every plate. The follow-up (secondary) screen tested active chemical-pairs in concentration series, as well as a few additional assays not tested in the primary screen, some selected negative inactives, and several cases re-run in the concentration series for confirmatory purposes.

SMILES | AC50 | outcome
CC1(C)C(C=C(Cl)Cl)C1C(=O)OCc1cccc(Oc2ccccc2)c1 (stereo not given) | inconclusive: 25 µM | 
O=C(O)c1cccnc1 | inconclusive: 25 µM | 
COC(=O)CSc1cc(N=c2sc(=O)n3n2CCCC3)c(F)cc1Cl | inconclusive: 25 µM | 
COc1ccc2cc(S(=O)(=O)N[C@H](CC(=O)N[C@H](Cc3ccc(CN4[C@H](C)CCC[C@@H]4C)cc3)C(=O)N(C)C(C)C)c3ccc4c(c3)OCO4)ccc2c1 | inconclusive: 0.107 µM | 
COC(=O)c1cccc(C)c1S(=O)(=O)NC(=O)Nc1nc(OCC(F)(F)F)nc(N(C)C)n1 | inconclusive: 44.1 µM | 
CCC(C)Nc1c([N+](=O)[O-])cc(C(C)(C)C)cc1[N+](=O)[O-] (stereo not given) | inconclusive: 0.201 µM | 
COc1cccc(-c2ccc(/C=C\CN3CCCCCC3)cc2Cl)c1 | active: 22.6 µM | 
CN(C)CCCN1c2ccccc2Sc2ccc(Cl)cc21 | active: 35.7 µM | 
S=C1NCCN1 |  | inactive
NC(=O)N(O)[C@@H]1C=C[C@H](Oc2cccc(Oc3ccc(F)cc3)c2)C1 | active: 41.2 µM | 

Some of these compounds in order of molar mass, rising.
SMILES | AC50 | outcome
O=C(O)c1cccnc1 | inconclusive: 25 µM | 
COC(=O)c1cccc(C)c1S(=O)(=O)NC(=O)Nc1nc(OCC(F)(F)F)nc(N(C)C)n1 | inconclusive: 44.1 µM | 
COc1ccc2cc(S(=O)(=O)N[C@H](CC(=O)N[C@H](Cc3ccc(CN4[C@H](C)CCC[C@@H]4C)cc3)C(=O)N(C)C(C)C)c3ccc4c(c3)OCO4)ccc2c1 | inconclusive: 0.107 µM | 
